PubChem BioAssay AID686943, Drosophila RNAi Screening Center – 2013
The screen tested about 23,000 reagents; this is an unselected part of those that have a named target and a result. 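Extra replicates exist only for a retested subset of genes; insulin dose and duration not given; both raised and lowered dpERK matter.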 Reagents against one gene are numbered here. Not all columns of the deposit are shown. Not stated in the record: the amount of reagent, the time to read-out.

Aim: 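Search across the genome for regulators of signalling from receptor tyrosine kinase to ERK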 (primary screen)
System: Drosophila S2R+ haemocyte-like cells expressing YFP-tagged ERK (Rolled)
Reagent: long dsRNA against Drosophila genes
Treatment: insulin stimulation versus unstimulated cells; dose and duration not given
Measurement: 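Per-plate z-scores of phospho-ERK immunostaining normalised to YFP-tagged ERK, measured with and without insulin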
Reading the numbers: replicate 1, z-score of dpERK with insulin: higher = more active ERK per ERK-YFP after insulin

Polr1E (RNA polymerase I subunit E) #1: replicate 1, z-score of dpERK with insulin = 0.12
Polr1E (RNA polymerase I subunit E) #2: replicate 1, z-score of dpERK with insulin = 0
CG13722 #1: replicate 1, z-score of dpERK with insulin = 0.48
CG13722 #2: replicate 1, z-score of dpERK with insulin = 0.41
CG31637 #1: replicate 1, z-score of dpERK with insulin = -0.01
CG31637 #2: replicate 1, z-score of dpERK with insulin = 1.47
mbf1 (multiprotein bridging factor 1): replicate 1, z-score of dpERK with insulin = 0.74
CG6052: replicate 1, z-score of dpERK with insulin = -0.09
Khc-73 (Kinesin heavy chain 73): replicate 1, z-score of dpERK with insulin = 0.37
MtnB (Metallothionein B): replicate 1, z-score of dpERK with insulin = 0.71
CG15373: replicate 1, z-score of dpERK with insulin = -0.59
CG12519 #1: replicate 1, z-score of dpERK with insulin = 0.11
CG12519 #2: replicate 1, z-score of dpERK with insulin = 0.51
mub (mushroom-body expressed): replicate 1, z-score of dpERK with insulin = -0.38
SF2 (Splicing factor 2): replicate 1, z-score of dpERK with insulin = 0.72
CG12766: replicate 1, z-score of dpERK with insulin = 0.01
Ostgamma (Oligosaccharide transferase gamma subunit): replicate 1, z-score of dpERK with insulin = 0.14
CG9312: replicate 1, z-score of dpERK with insulin = -0.58
Glut4EF (Glucose transporter 4 enhancer factor) #1: replicate 1, z-score of dpERK with insulin = -2.41
Glut4EF (Glucose transporter 4 enhancer factor) #2: replicate 1, z-score of dpERK with insulin = 1.38
Glut4EF (Glucose transporter 4 enhancer factor) #3: replicate 1, z-score of dpERK with insulin = 2.15
Glut4EF (Glucose transporter 4 enhancer factor) #4: replicate 1, z-score of dpERK with insulin = 0.4
Glut4EF (Glucose transporter 4 enhancer factor) #5: replicate 1, z-score of dpERK with insulin = -1.24
